From article PMC6052020
Results are given in words; binding and its absence hold for the method and conditions named. In cells and extracts the contact can be indirect. Some results given as binding are weak or reduced against the parent protein; the word gives no strength.

Protein sequences, listed by entry. Tags and fused reporters are not part of them.
UniProt Q9CW03: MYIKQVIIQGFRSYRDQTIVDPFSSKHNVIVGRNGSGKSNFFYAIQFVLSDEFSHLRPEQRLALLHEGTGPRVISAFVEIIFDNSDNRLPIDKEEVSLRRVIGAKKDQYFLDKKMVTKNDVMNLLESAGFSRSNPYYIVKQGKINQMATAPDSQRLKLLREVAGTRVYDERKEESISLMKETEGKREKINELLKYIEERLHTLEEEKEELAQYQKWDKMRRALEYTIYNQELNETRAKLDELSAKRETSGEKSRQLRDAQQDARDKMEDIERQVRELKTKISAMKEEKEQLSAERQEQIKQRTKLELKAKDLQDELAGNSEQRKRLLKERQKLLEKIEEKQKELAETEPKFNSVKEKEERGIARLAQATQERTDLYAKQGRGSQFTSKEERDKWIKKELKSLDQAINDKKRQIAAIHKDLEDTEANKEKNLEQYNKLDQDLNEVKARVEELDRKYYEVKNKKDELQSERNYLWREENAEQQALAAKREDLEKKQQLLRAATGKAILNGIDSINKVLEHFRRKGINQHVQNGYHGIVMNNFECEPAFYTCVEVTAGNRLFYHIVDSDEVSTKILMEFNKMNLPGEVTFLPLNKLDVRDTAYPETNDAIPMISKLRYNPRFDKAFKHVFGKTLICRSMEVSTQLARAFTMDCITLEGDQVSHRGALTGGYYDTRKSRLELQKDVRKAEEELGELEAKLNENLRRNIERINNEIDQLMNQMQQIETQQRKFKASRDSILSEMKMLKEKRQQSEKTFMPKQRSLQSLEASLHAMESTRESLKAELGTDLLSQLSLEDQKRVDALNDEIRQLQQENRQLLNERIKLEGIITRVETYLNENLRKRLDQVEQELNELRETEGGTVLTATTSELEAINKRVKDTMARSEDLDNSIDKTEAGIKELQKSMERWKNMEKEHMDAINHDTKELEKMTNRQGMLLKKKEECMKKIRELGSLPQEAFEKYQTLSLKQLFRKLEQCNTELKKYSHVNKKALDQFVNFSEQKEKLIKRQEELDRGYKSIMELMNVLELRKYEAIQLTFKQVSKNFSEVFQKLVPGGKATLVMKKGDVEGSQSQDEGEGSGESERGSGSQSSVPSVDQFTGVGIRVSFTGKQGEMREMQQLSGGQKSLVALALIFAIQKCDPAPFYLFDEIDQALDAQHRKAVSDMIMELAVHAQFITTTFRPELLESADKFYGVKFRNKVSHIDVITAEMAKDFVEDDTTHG

T1: nucleoporin 107 (NUP107) (mouse (endogenous in XEN cells)) (UniProt Q8BH74)
T1 sequence: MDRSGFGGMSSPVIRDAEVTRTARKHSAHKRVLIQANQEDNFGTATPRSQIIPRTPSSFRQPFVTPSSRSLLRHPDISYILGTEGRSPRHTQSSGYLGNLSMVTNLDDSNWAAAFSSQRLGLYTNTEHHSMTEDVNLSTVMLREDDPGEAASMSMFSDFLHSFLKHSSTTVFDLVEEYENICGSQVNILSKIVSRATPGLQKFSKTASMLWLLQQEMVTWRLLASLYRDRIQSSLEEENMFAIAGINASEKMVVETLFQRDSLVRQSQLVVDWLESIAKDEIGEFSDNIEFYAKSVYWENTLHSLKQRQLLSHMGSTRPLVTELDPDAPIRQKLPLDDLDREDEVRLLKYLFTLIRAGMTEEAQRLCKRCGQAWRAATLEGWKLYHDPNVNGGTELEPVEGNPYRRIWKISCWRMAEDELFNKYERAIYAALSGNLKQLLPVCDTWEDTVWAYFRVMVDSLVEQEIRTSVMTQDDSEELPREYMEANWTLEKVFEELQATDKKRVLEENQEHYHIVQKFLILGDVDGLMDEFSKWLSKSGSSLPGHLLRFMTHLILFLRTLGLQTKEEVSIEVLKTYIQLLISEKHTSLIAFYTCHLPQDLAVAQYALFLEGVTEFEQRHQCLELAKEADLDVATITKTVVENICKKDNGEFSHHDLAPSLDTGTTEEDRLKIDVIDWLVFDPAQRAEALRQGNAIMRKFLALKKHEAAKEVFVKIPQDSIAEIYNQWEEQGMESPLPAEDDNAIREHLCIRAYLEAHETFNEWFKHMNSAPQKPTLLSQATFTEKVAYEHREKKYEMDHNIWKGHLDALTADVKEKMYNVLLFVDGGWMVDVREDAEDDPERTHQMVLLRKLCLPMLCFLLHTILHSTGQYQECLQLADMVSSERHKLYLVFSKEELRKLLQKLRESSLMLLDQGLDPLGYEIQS

B1: CCCTC-binding factor (CTCF) (protein, UniProt Q61164 1-736)
chain: MEGEAVEAIVEESETFIKGKERKTYQRRREGGQEEDACHLPQNQTDGGEVVQDVNSSVQMVMMEQLDPTLLQMKTEVMEGTVAPEAEAAVDDTQIITLQVVNMEEQPINIGELQLVQVPVPVTVPVATTSVEELQGAYENEVSKEGLAESEPMICHTLPLPEGFQVVKVGANGEVETLEQGELPPQEDSSWQKDPDYQPPAKKTKKTKKSKLRYTEEGKDVDVSVYDFEEEQQEGLLSEVNAEKVVGNMKPPKPTKIKKKGVKKTFQCELCSYTCPRRSNLDRHMKSHTDERPHKCHLCGRAFRTVTLLRNHLNTHTGTRPHKCPDCDMAFVTSGELVRHRRYKHTHEKPFKCSMCDYASVEVSKLKRHIRSHTGERPFQCSLCSYASRDTYKLKRHMRTHSGEKPYECYICHARFTQSGTMKMHILQKHTENVAKFHCPHCDTVIARKSDLGVHLRKQHSYIEQGKKCRYCDAVFHERYALIQHQKSHKNEKRFKCDQCDYACRQERHMIMHKRTHTGEKPYACSHCDKTFRQKQLLDMHFKRYHDPNFVPAAFVCSKCGKTFTRRNTMARHADNCAGPDGVEGENGGETKKSKRGRKRKMRSKKEDSSDSEENAEPDLDDNEEEEEPAVEIEPEPEPQPQPPPPPQPVAPAPPPAKKRRGRPPGRTNQPKQNQPTAIIQVEDQNTGAIENIIVEVKKEPDAEPAEGEEEEAQAATTDAPNGDLTPEMILSMMDR
B2: structural maintenance of chromosomes 1a (SMC1A) (protein, UniProt Q9CU62 1-1233)
chain: MGFLKLIEIENFKSYKGRQIIGPFQRFTAIIGPNGSGKSNLMDAISFVLGEKTSNLRVKTLRDLIHGAPVGKPAANRAFVSMVYSEEGAEDRTFARVIVGGSSEYKINNKVVQLHEYSEELEKLGILIKARNFLVFQGAVESIAMKNPKERTALFEEISRSGELAQEYDKRKKEMVKAEEDTQFNYHRKKNIAAERKEAKQEKEEADRYQRLKDEVVRAQVQLQLFKLYHNEVEIEKLNKELASKNKEIEKDKKRMDKVEDELKEKKKELGKMMREQQQIEKEIKEKDSELNQKRPQYIKAKENTSHKIKKLEAAKKSLQNAQKHYKKRKGDMDELEKEMLSVEKARQEFEERMEEESQSQGRDLTLEENQVKKYHRLKEEASKRAATLAQELEKFNRDQKADQDRLDLEERKKVETEAKIKQKLREIEENQKRIEKLEEYITTSKQSLEEQKKLEGELTEEVEMAKRRIDEINKELNQVMEQLGDARIDRQESSRQQRKAEIMESIKRLYPGSVYGRLIDLCQPTQKKYQIAVTKVLGKNMDAIIVDSEKTGRDCIQYIKEQRGEPETFLPLDYLEVKPTDEKLRELKGAKLVIDVIRYEPPHIKKALQYACGNALVCDNVEDARRIAFGGHQRHKTVALDGTLFQKSGVISGGASDLKAKARRWDEKAVDKLKEKKERLTEELKEQMKAKRKEAELRQVQSQAHGLQMRLKYSQSDLEQTKTRHLALNLQEKSKLESELANFGPRINDIKRIIQSREREMKDLKEKMNQVEDEVFEEFCREIGVRNIREFEEEKVKRQNEIAKKRLEFENQKTRLGIQLDFEKNQLKEDQDKVHMWEQTVKKDENEIEKLKKEEQRHMKIIDETMAQLQDLKNQHLAKKSEVNDKNHEMEEIRKKLGGANKEMTHLQKEVTAIETKLEQKRSDRHNLLQACKMQDIKLPLSKGTMDDISQEEGSSQGEESVSGSQRTSSIYAREALIEIDYGDLCEDLKDAQAEEEIKQEMNTLQQKLNEQQSVLQRIAAPNMKAMEKLESVRDKFQETSDEFEAARKRAKKAKQAFEQIKKERFDRFNACFESVATNIDEIYKALSRNSSAQAFLGPENPEEPYLDGINYNCVAPGKRFRPMDNLSGGEKTVAALALLFAIHSYKPAPFFVLDEIDAALDNTNIGKVANYIKEQSTCNFQAIVISLKEEFYTKAESLIGVYPEQGDCVISKVLTFDLTKYPDANPNPNEQ

Biological target: T1, nucleoporin 107 (NUP107) (mouse (endogenous in XEN cells))
Assay: co-IP; 50 ug XEN cell nuclear lysate incubated with mAb414 or NUP153 antibody, RNase A, DNase I and protease inhibitor overnight at 4 C; Dynabeads Protein G 1 h at 4 C; washed with 0.1% Tween-20 in PBS; western blot with CTCF, SMC1A and SMC3 antibodies; cells treated with siNT (control), Nup107/62, Nup153, Nup107 or Nup62 siRNAs

binding, binds:
structural maintenance of chromosomes 3 (SMC3) (from UniProt Q9CW03 1-1217), B1, B2
